Values of other authors in patent US20070264667A1, “Method and system for assaying transferase activity” (priority 2003, published 2007).

Tested on: cyclin-dependent protein kinase (CDPK)
Details: ref (21)

CC[C@H](CO)Nc1nc(NCc2ccccc2)c2ncn(C(C)C)c2n1 [Roscovitine]
selectivity towards CDPK than any other kinase: 100 fold
